PubChem BioAssay AID1259405 | NCATS, 2018
Shown is a random part of about 50,000 reagents tested. About 4,000 of all reagents (8%) were called active. 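Mouse siRNA library applied to hamster cells; one well for each siRNA.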 Reagents against one gene are numbered here.

Test: 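Silenced genes that increase secreted GFP made by CHO cells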 (primary screen)
System: Chinese hamster CHO-K1 ovary cells with stable secreted eGFP expression
Knock-down reagent: single siRNA against mouse genes, 0.8 pmol siRNA per well (2 µl of 400 nM stock)
Timing: 3 days
Read-out: 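Percent of the per-plate non-targeting control median for intracellular GFP per well by laser scanning cytometry and for cell viability by ATP luminescence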
Reading the numbers: GFP, % of control: higher = more GFP per well, higher productivity; viability (ATP), % of control: higher = more viable cells (more ATP)
Active means: 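Called active when intracellular GFP, relative to negative control, is at or above 120%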

With knock-down of Arrdc3 #1, the record shows GFP, % of control 61.8; viability (ATP), % of control 60.4; inactive.
After knock-down of Arrdc3 #2, the record shows GFP, % of control 89; viability (ATP), % of control 96.4; inactive.
After knock-down of Arrdc3 #3, the record shows GFP, % of control 85.5; viability (ATP), % of control 108; inactive.
After knock-down of Zkscan3 #1, the screen gave GFP, % of control 95.7; viability (ATP), % of control 95.2; inactive.
Zkscan3 #2 gave GFP, % of control 54.3; viability (ATP), % of control 67.2; inactive.
Against Zkscan3 #3 the deposit lists GFP, % of control 65.7; viability (ATP), % of control 81.2; inactive.
Knock-down of Lztfl1 #1 gave: GFP, % of control 74; viability (ATP), % of control 61.5; inactive.
After knock-down of Lztfl1 #2 the results were GFP, % of control 53.9; viability (ATP), % of control 82; inactive.
With knock-down of Lztfl1 #3, the record shows GFP, % of control 80.7; viability (ATP), % of control 70.4; inactive.
With knock-down of Ttc1 #1, the record shows GFP, % of control 65.3; viability (ATP), % of control 82.8; inactive.
For Ttc1 #2 the deposit lists GFP, % of control 61.4; viability (ATP), % of control 67.5; inactive.
Tnni3 #1 scored GFP, % of control 101; viability (ATP), % of control 77.3; inactive.
Tnni3 #2 scored GFP, % of control 106; viability (ATP), % of control 86.4; inactive.
After knock-down of Pwp2 #1, the record shows GFP, % of control 40.3; viability (ATP), % of control 52.7; inactive.
After knock-down of Pwp2 #2, the screen gave GFP, % of control 13.3; viability (ATP), % of control 34.4; inactive.
Pwp2 #3 gave GFP, % of control 66.4; viability (ATP), % of control 72.9; inactive.
With knock-down of Samd10 #1, the record shows GFP, % of control 71.9; viability (ATP), % of control 87; inactive.
Silencing of Samd10 #2 came out at: GFP, % of control 49.1; viability (ATP), % of control 56.7; inactive.
Samd10 #3 showed GFP, % of control 74.4; viability (ATP), % of control 74.3; inactive.
Dema1 #1 gave GFP, % of control 98.8; viability (ATP), % of control 107; inactive.
Dema1 #2 gave GFP, % of control 162; viability (ATP), % of control 65.6; active.
Silencing of Dema1 #3 came out at: GFP, % of control 84.8; viability (ATP), % of control 66.1; inactive.
With knock-down of Pwwp3a #1 the results were GFP, % of control 79.4; viability (ATP), % of control 58.3; inactive.
Against Pwwp3a #2 the deposit lists GFP, % of control 51.3; viability (ATP), % of control 71.6; inactive.
Depletion of Pwwp3a #3 resulted in: GFP, % of control 33.9; viability (ATP), % of control 54; inactive.
For Rab6a #1, the entry reads GFP, % of control 3.58; viability (ATP), % of control 16.2; inactive.
Rab6a #2 scored GFP, % of control 114; viability (ATP), % of control 78.6; inactive.
After knock-down of Rab6a #3, the screen gave GFP, % of control 84.8; viability (ATP), % of control 70.7; inactive.
After knock-down of Eif5b #1, the screen gave GFP, % of control 47.6; viability (ATP), % of control 23.4; inactive.
Eif5b #2 scored GFP, % of control 45.3; viability (ATP), % of control 43.4; inactive.
Depletion of Eif5b #3 gave: GFP, % of control 105; viability (ATP), % of control 93.5; inactive.
Knock-down of Iqub #1 gave: GFP, % of control 40.1; viability (ATP), % of control 72.5; inactive.
Depletion of Iqub #2 resulted in: GFP, % of control 90; viability (ATP), % of control 59.9; inactive.
Iqub #3 showed GFP, % of control 81.3; viability (ATP), % of control 86.5; inactive.
Rabggtb #1 showed GFP, % of control 6.35; viability (ATP), % of control 11.8; inactive.
Silencing of Rabggtb #2 gave: GFP, % of control 68.2; viability (ATP), % of control 142; inactive.
For Rabggtb #3 the deposit lists GFP, % of control 108; viability (ATP), % of control 97.3; inactive.
With knock-down of Pgpep1 #1, the screen gave GFP, % of control 65.4; viability (ATP), % of control 73.1; inactive.
For Pgpep1 #2, the entry reads GFP, % of control 42.9; viability (ATP), % of control 27.4; inactive.
For Pgpep1 #3 the deposit lists GFP, % of control 112; viability (ATP), % of control 65.8; inactive.
After knock-down of Snu13 #1, the screen gave GFP, % of control 45.5; viability (ATP), % of control 73.1; inactive.
After knock-down of Snu13 #2, the record shows GFP, % of control 74.8; viability (ATP), % of control 67.1; inactive.
Against Snu13 #3, the values are GFP, % of control 90.2; viability (ATP), % of control 110; inactive.
Against Dyrk3 #1, the values are GFP, % of control 115; viability (ATP), % of control 164; inactive.
Dyrk3 #2 scored GFP, % of control 94.7; viability (ATP), % of control 62.4; inactive.
Depletion of Dyrk3 #3 gave: GFP, % of control 87.7; viability (ATP), % of control 78.9; inactive.
For Cdsn #1, the entry reads GFP, % of control 42.2; viability (ATP), % of control 60.1; inactive.
Depletion of Cdsn #2 gave: GFP, % of control 77.4; viability (ATP), % of control 70.1; inactive.
Knock-down of Cdsn #3 came out at: GFP, % of control 80.4; viability (ATP), % of control 94.9; inactive.
For Fkbp7 #1 the deposit lists GFP, % of control 58.2; viability (ATP), % of control 86; inactive.
Fkbp7 #2 scored GFP, % of control 51.9; viability (ATP), % of control 45.6; inactive.
Fkbp7 #3 scored GFP, % of control 134; viability (ATP), % of control 65.4; active.

Quoted from above (2 entries):
Pgpep1 #3 → GFP, % of control = 112; viability (ATP), % of control = 65.8; outcome = inactive
Snu13 #1 → GFP, % of control = 45.5; viability (ATP), % of control = 73.1; outcome = inactive
